Results from one PubChem assay

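Malaria parasite (P. falciparum) lines kept in red blood cells; parasite DNA is measured by SYBR Green fluorescence after lysis, 72 h after compound addition. Each compound was titrated across a series from about 0.000037 to 29 µM. The number is the fitted AC50, the concentration giving a half-maximal change in signal; a lower value means higher potency, whether the curve shows a decrease or an increase. Calls follow the curve class and fit quality: every row here is inconclusive, covering signal-raising curves and weak, poorly fitted, partial or highest-dose-only inhibition curves.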

Values are in µM. All entries here are filed as inconclusive. Only part of the assay is shown, chiefly results filed as inconclusive. A potency from a partial, single-point or poor curve is only a rough figure. Some entries filed as inconclusive have a full curve.

| # | Compound | setting | potency (µM) | curve as filed |
|---|---|---|---|---|
| 1 | `C#C[C@]1(O)CC[C@@H]2[C@H]3CCC4=CC(=O)CC[C@H]4[C@H]3C(=C)C[C@@]21CC` | 3D7 | 19.95 | inhibitor, single point |
| 2 | `C#C[C@]1(O)CC[C@@H]2[C@H]3CCC4=CC(=O)CC[C@H]4[C@H]3C(=C)C[C@@]21CC` | CP237 | 12.59 | inhibitor, single point |
| 3 | `C#C[C@]1(O)CC[C@@H]2[C@H]3CCC4=CC(=O)CC[C@H]4[C@H]3C(=C)C[C@@]21CC` | DIV30 | 0.4256 | inhibitor, full curve |
| 4 | `C#C[C@]1(O)CC[C@@H]2[C@H]3CCC4=CC(=O)CC[C@H]4[C@H]3C(=C)C[C@@]21CC` | CP247 | 4.467 | inhibitor, partial curve |
| 5 | `C#C[C@@]1(O)CC[C@@H]2[C@H]3CCC4=C/C(=N\O)CC[C@H]4[C@@H]3CC[C@]21CC` | 7G8 | 11.22 | inhibitor, partial curve |
| 6 | `C#C[C@@]1(O)CC[C@@H]2[C@H]3CCC4=C/C(=N\O)CC[C@H]4[C@@H]3CC[C@]21CC` | W2 | 13.46 | inhibitor, single point |
| 7 | `C#C[C@@]1(O)CC[C@@H]2[C@H]3CCC4=C/C(=N\O)CC[C@H]4[C@@H]3CC[C@]21CC` | ICS | 7.943 | inhibitor, partial curve |
| 8 | `C#C[C@@]1(O)CC[C@@H]2[C@H]3CCC4=C/C(=N\O)CC[C@H]4[C@@H]3CC[C@]21CC` | CP194 | 21.33 | inhibitor, single point |
| 9 | `C#C[C@@]1(O)CC[C@@H]2[C@H]3CCC4=C/C(=N\O)CC[C@H]4[C@@H]3CC[C@]21CC` | GB4 | 15.1 | inhibitor, partial curve, poor fit |
| 10 | `CC(=O)Oc1cc(C)c(OC(C)=O)c2ccccc12` | CP215 | 19.01 | inhibitor, single point |
| 11 | `CC(=O)Oc1cc(C)c(OC(C)=O)c2ccccc12` | CP185 | 11.22 | inhibitor, single point |
| 12 | `CC(=O)Oc1cc(C)c(OC(C)=O)c2ccccc12` | CP265 | 10 | inhibitor, single point |
| 13 | `CC(=O)Oc1cc(C)c(OC(C)=O)c2ccccc12` | N140 | 11.22 | inhibitor, single point |
| 14 | `CC(=O)Oc1cc(C)c(OC(C)=O)c2ccccc12` | JCK | 11.22 | inhibitor, single point |
| 15 | `CC(=O)Oc1cc(C)c(OC(C)=O)c2ccccc12` | SC27B | 10 | inhibitor, single point |
| 16 | `CC(=O)Oc1cc(C)c(OC(C)=O)c2ccccc12` | CP252 | 17.78 | inhibitor, single point |
| 17 | `CC(=O)Oc1cc(C)c(OC(C)=O)c2ccccc12` | Dd2 | 10 | inhibitor, single point |
| 18 | `CC(=O)Oc1cc(C)c(OC(C)=O)c2ccccc12` | DFO2036 | 17.78 | inhibitor, single point |
| 19 | `CC(=O)Oc1cc(C)c(OC(C)=O)c2ccccc12` | CP305 | 15.1 | inhibitor, single point |
| 20 | `CC(=O)Oc1cc(C)c(OC(C)=O)c2ccccc12` | CP269 | 15.1 | inhibitor, single point |
| 21 | `CC(=O)Oc1cc(C)c(OC(C)=O)c2ccccc12` | ATS95 | 11.22 | inhibitor, single point |
| 22 | `CC(=O)Oc1cc(C)c(OC(C)=O)c2ccccc12` | CP335 | 12 | inhibitor, single point |
| 23 | `CC(=O)Oc1cc(C)c(OC(C)=O)c2ccccc12` | P94_40 | 12.59 | inhibitor, single point |
| 24 | `CC(=O)Oc1cc(C)c(OC(C)=O)c2ccccc12` | CP194 | 15.1 | inhibitor, partial curve |
| 25 | `CC(=O)Oc1cc(C)c(OC(C)=O)c2ccccc12` | HB3 | 12.59 | inhibitor, partial curve |
| 26 | `CC(=O)Oc1cc(C)c(OC(C)=O)c2ccccc12` | PAD | 11.22 | inhibitor, single point |
| 27 | `CC(=O)Oc1cc(C)c(OC(C)=O)c2ccccc12` | AA1029 | 10 | inhibitor, single point |
| 28 | `CC(=O)Oc1cc(C)c(OC(C)=O)c2ccccc12` | CP203 | 16.94 | inhibitor, single point |
| 29 | `CC(=O)Oc1cc(C)c(OC(C)=O)c2ccccc12` | CP266 | 16.94 | inhibitor, single point |
| 30 | `CC(=O)Oc1cc(C)c(OC(C)=O)c2ccccc12` | CP201 | 9.528 | inhibitor, partial curve |
| 31 | `CC(=O)Oc1cc(C)c(OC(C)=O)c2ccccc12` | CP291 | 12 | inhibitor, single point |
| 32 | `CC(=O)Oc1cc(C)c(OC(C)=O)c2ccccc12` | CP260 | 10 | inhibitor, single point |
| 33 | `CC(=O)Oc1cc(C)c(OC(C)=O)c2ccccc12` | CP247 | 8.912 | inhibitor, partial curve, poor fit |
| 34 | `CC(=O)Oc1cc(C)c(OC(C)=O)c2ccccc12` | CP297 | 13.46 | inhibitor, single point |
| 35 | `CC(=O)Oc1cc(C)c(OC(C)=O)c2ccccc12` | CP237 | 10 | inhibitor, single point |
| 36 | `CC(=O)Oc1cc(C)c(OC(C)=O)c2ccccc12` | TAB113 | 12.59 | inhibitor, single point |
| 37 | `CC(=O)Oc1cc(C)c(OC(C)=O)c2ccccc12` | CP268 | 16.94 | inhibitor, single point |
| 38 | `CC(=O)Oc1cc(C)c(OC(C)=O)c2ccccc12` | CP286 | 17.78 | inhibitor, single point |
| 39 | `CC(=O)Oc1cc(C)c(OC(C)=O)c2ccccc12` | CP315 | 19.01 | inhibitor, single point |
| 40 | `CC(=O)Oc1cc(C)c(OC(C)=O)c2ccccc12` | DIV30 | 15.1 | inhibitor, single point |
| 41 | `CC(=O)Oc1cc(C)c(OC(C)=O)c2ccccc12` | TAB109 | 11.22 | inhibitor, single point |
| 42 | `CC(=O)Oc1cc(C)c(OC(C)=O)c2ccccc12` | CP191 | 11.22 | inhibitor, single point |
| 43 | `CC(=O)Oc1cc(C)c(OC(C)=O)c2ccccc12` | ATS189 | 17.78 | inhibitor, single point |
| 44 | `CC(=O)Oc1cc(C)c(OC(C)=O)c2ccccc12` | CP211 | 13.46 | inhibitor, single point |
| 45 | `CC(=O)Oc1cc(C)c(OC(C)=O)c2ccccc12` | ECU | 10 | inhibitor, single point |
| 46 | `CC(=O)Oc1cc(C)c(OC(C)=O)c2ccccc12` | PC49 | 19.95 | inhibitor, single point |
| 47 | `CC(=O)Oc1cc(C)c(OC(C)=O)c2ccccc12` | CP217 | 10 | inhibitor, single point |
| 48 | `CC(=O)Oc1cc(C)c(OC(C)=O)c2ccccc12` | FAB9 | 11.22 | inhibitor, single point |
| 49 | `CC(=O)Oc1cc(C)c(OC(C)=O)c2ccccc12` | CP238 | 10 | inhibitor, single point |
| 50 | `CC(=O)Oc1cc(C)c(OC(C)=O)c2ccccc12` | CP329 | 19.01 | inhibitor, single point |
| 51 | `CCOC(=O)C1=C(C)NC(C)=C(C(=O)OCC)C1c1ccccc1C=CC(=O)OC(C)(C)C` | ATS189 | 10 | inhibitor, single point |
| 52 | `CCOC(=O)C1=C(C)NC(C)=C(C(=O)OCC)C1c1ccccc1C=CC(=O)OC(C)(C)C` | CP247 | 15.85 | inhibitor, single point |
| 53 | `CCOC(=O)C1=C(C)NC(C)=C(C(=O)OCC)C1c1ccccc1C=CC(=O)OC(C)(C)C` | PC49 | 12.59 | inhibitor, single point |

5 of the entries, repeated:

{"compound": "CC(=O)Oc1cc(C)c(OC(C)=O)c2ccccc12", "setting": "CP315", "potency (µM)": "19.01", "curve as filed": "inhibitor, single point"}
{"compound": "C#C[C@@]1(O)CC[C@@H]2[C@H]3CCC4=C/C(=N\\O)CC[C@H]4[C@@H]3CC[C@]21CC", "setting": "ICS", "potency (µM)": "7.943", "curve as filed": "inhibitor, partial curve"}
{"compound": "CC(=O)Oc1cc(C)c(OC(C)=O)c2ccccc12", "setting": "JCK", "potency (µM)": "11.22", "curve as filed": "inhibitor, single point"}
{"compound": "CC(=O)Oc1cc(C)c(OC(C)=O)c2ccccc12", "setting": "CP335", "potency (µM)": "12", "curve as filed": "inhibitor, single point"}
{"compound": "CC(=O)Oc1cc(C)c(OC(C)=O)c2ccccc12", "setting": "DFO2036", "potency (µM)": "17.78", "curve as filed": "inhibitor, single point"}

Source: PubChem BioAssay AID504749 (NCATS, 2011).